These are yes or no findings as the source states them, for the method shown. Binding seen in cells or lysates may run through a third protein. Some results given as binding are weak or reduced against the parent protein; the word gives no strength.
Tests used:
[1] = biological target: sigma-1 receptor, endogenous in HEK-293 cells (human (endogenous in HEK-293)) (UniProt Q99720); assay: co-IP; HEK-293 lysates precipitated with rabbit serum against σ1R on AminoLink Plus Coupling Resin, 14-18 h at 4 °C; blot probed with anti-DAT, re-probed with anti-σ1R
[2] = biological target: sigma-1 receptor, overexpressed untagged (UniProt Q99720); assay: as above

Chains of the proteins cited; added tags and fusions are not shown.
UniProt Q99720: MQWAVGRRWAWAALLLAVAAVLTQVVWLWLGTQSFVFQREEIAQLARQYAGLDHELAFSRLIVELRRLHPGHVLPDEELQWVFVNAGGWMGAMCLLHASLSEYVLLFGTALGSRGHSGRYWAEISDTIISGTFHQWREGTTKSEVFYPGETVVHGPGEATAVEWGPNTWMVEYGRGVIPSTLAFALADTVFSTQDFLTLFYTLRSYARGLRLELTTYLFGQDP
UniProt Q61327: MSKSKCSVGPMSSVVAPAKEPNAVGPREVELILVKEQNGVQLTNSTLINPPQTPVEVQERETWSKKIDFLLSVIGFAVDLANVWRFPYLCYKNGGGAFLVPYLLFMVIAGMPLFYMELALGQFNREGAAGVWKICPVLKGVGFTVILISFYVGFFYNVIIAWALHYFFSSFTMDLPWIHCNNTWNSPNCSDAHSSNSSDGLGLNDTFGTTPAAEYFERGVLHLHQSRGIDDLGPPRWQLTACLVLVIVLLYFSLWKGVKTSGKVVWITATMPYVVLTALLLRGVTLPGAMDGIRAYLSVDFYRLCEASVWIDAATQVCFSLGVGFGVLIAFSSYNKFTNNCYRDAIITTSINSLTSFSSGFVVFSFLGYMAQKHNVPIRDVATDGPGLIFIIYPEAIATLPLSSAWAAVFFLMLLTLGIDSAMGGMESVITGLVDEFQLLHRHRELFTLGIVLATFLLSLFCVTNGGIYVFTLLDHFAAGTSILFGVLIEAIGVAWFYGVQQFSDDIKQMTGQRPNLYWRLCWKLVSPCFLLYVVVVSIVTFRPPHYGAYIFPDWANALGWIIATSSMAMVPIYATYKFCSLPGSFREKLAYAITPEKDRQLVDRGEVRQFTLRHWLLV

## dopamine transporter (mDAT) (from UniProt Q61327 1-619)
[1]
  binding: binds
[2]
  binding: binds
